{"sequences": {"note": "Protein sequences, listed by entry. Tags and fused reporters are not part of them.", "UniProt Q9UKK3": "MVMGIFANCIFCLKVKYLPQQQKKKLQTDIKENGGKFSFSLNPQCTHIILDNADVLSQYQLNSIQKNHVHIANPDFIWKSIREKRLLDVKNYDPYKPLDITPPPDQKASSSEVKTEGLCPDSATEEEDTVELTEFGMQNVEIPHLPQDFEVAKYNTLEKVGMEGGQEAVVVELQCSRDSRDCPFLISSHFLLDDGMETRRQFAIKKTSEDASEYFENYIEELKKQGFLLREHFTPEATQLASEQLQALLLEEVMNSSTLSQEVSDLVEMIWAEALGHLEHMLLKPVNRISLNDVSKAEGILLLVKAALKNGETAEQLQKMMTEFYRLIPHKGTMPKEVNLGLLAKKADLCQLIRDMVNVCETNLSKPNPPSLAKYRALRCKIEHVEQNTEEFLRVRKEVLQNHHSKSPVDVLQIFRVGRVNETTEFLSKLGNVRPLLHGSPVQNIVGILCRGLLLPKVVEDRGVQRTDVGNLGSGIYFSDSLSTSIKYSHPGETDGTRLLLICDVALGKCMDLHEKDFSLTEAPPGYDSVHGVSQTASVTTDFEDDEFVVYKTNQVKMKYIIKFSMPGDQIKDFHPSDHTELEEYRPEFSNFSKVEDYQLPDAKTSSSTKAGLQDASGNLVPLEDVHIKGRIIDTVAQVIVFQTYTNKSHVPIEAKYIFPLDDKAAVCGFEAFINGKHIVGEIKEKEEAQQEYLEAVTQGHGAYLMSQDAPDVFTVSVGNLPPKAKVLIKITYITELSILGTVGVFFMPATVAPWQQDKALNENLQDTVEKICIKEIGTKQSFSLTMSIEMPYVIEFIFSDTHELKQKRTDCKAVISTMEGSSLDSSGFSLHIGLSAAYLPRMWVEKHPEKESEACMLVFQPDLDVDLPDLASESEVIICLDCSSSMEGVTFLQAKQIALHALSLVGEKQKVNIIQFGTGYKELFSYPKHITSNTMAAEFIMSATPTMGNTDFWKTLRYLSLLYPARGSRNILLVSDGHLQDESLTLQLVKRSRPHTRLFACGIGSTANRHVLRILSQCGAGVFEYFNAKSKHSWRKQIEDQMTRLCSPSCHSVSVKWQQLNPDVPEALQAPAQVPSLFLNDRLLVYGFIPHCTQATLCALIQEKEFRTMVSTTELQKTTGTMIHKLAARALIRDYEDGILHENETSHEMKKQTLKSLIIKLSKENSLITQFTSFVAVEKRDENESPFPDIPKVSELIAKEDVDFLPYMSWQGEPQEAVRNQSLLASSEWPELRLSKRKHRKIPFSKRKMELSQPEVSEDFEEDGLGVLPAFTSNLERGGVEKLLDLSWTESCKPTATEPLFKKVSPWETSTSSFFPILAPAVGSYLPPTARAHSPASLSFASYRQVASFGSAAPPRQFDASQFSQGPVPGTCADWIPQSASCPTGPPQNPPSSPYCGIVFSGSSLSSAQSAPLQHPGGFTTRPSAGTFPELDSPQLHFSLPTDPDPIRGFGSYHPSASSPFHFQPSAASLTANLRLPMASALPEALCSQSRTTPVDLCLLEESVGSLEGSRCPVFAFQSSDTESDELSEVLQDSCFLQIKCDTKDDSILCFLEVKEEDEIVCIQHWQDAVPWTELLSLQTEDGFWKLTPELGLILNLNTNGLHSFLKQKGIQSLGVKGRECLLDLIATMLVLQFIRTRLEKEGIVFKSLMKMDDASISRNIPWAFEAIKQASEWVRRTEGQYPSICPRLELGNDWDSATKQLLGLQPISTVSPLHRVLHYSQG"}, "source": "paper PMC11265163", "binders": {"B1": {"name": "heterogeneous ribonucleoprotein M (hnRNPM) (protein, UniProt P52272 1-730)", "chain": "MAAGVEAAAEVAATEIKMEEESGAPGVPSGNGAPGPKGEGERPAQNEKRKEKNIKRGGNRFEPYANPTKRYRAFITNIPFDVKWQSLKDLVKEKVGEVTYVELLMDAEGKSRGCAVVEFKMEESMKKAAEVLNKHSLSGRPLKVKEDPDGEHARRAMQKVMATTGGMGMGPGGPGMITIPPSILNNPNIPNEIIHALQAGRLGSTVFVANLDYKVGWKKLKEVFSMAGVVVRADILEDKDGKSRGIGTVTFEQSIEAVQAISMFNGQLLFDRPMHVKMDERALPKGDFFPPERPQQLPHGLGGIGMGLGPGGQPIDANHLNKGIGMGNIGPAGMGMEGIGFGINKMGGMEGPFGGGMENMGRFGSGMNMGRINEILSNALKRGEIIAKQGGGGGGGSVPGIERMGPGIDRLGGAGMERMGAGLGHGMDRVGSEIERMGLVMDRMGSVERMGSGIERMGPLGLDHMASSIERMGQTMERIGSGVERMGAGMGFGLERMAAPIDRVGQTIERMGSGVERMGPAIERMGLSMERMVPAGMGAGLERMGPVMDRMATGLERMGANNLERMGLERMGANSLERMGLERMGANSLERMGPAMGPALGAGIERMGLAMGGGGGASFDRAIEMERGNFGGSFAGSFGGAGGHAPGVARKACQIFVRNLPFDFTWKMLKDKFNECGHVLYADIKMENGKSKGCGVVKFESPEVAERACRMMNGMKLSGREIDVRIDRNA"}}, "biological_target": "PARP4 (human (endogenous in iSAEC-K, A549 and patient-derived lung cell lines)) (UniProt Q9UKK3)", "test": "affinity purification with mass spectrometry; immunoprecipitation of endogenous PARP4 from SILAC-labelled extracts of iSAEC-K shControl cells, shPARP4 #1 cells as negative control; forward and reverse experiments; quantitative mass spectrometry", "note": "Results are given in words; binding and its absence hold for the method and conditions named. In cells and extracts the contact can be indirect. These calls come from enrichment with a bait or labelling near it, and not all partners need be listed."}
{"binder": "B1", "values": [{"measurement": "binding", "result": "binds"}]}
